Source: patent US20120171699A1 (Merck KGaA, published 2012)
Results are given in words; binding and its absence hold for the method and conditions named. Some entries that bind do so weakly or less than the wild type.

Sequences of proteins named here, by UniProt entry; tags and fusion partners are left off. A change or cut given only in a name is not applied to a line headed by its entry.
UniProt P08514: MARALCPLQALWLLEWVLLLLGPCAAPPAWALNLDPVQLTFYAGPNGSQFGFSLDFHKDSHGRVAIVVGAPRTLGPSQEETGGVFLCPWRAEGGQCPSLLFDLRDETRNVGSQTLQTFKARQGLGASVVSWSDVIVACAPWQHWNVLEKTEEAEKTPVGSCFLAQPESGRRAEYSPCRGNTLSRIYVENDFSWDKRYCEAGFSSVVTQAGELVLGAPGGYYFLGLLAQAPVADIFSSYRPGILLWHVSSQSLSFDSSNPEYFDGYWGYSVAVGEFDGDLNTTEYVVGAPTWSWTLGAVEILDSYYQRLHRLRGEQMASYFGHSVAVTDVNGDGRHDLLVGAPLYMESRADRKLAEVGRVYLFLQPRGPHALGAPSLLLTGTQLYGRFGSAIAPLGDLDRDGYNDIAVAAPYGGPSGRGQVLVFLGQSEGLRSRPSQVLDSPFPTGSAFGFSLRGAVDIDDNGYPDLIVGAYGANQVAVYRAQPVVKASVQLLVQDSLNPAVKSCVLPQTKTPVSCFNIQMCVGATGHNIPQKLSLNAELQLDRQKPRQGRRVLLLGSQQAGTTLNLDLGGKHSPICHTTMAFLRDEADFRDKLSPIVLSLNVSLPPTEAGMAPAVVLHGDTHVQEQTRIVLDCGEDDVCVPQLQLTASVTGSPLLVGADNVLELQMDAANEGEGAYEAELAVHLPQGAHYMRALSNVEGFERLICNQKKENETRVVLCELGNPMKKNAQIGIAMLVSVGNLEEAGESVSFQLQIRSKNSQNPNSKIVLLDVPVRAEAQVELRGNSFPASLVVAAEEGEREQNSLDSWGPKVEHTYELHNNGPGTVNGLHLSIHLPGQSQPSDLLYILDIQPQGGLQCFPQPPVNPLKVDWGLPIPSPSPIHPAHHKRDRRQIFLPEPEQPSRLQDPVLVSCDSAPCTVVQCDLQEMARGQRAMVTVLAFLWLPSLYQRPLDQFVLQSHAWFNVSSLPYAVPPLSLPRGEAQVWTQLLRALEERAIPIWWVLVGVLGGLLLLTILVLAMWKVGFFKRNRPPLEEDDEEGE

Assays:
[1] = biological target: integrin αiibβ3 on M21-gpiib melanoma cells (UniProt P08514); assay: live cell flow cytometry on M21-gpiib melanoma cells
[2] = biological target: integrin αiibβ3 on M21-gpiib melanoma cells (UniProt P08514); assay: live cell flow cytometry on M21-gpiib cells

- binding [1]: binds
- binding [2]: binds
B1: EM22703 (antibody, V domains shown)
VH: QSVKESEGGLFKPTDTLILTCTVSGFSLSSYGVSWVRQAPGNGLEYIGSISTTGITYYASWAKSRSTITRNTNLYTVTLKMTGLTAADTATYFCARGFPGHLRKPSDIWGPGTLVTVSA
VL: AQVLTQTPSSVSAAVGGTVSISCQSSESVYADIALSWFQQKPGQPPKLLIYGASTLASGVPSRFSGSGSGTEFTLTISDVQCDAAATYYCAGDYGAGTEPNLFGGGTEVVVSG
notes: Rabbit monoclonal; Hybridoma and recombinant forms are kept as one molecule
